In this test the target is Vipp1_(F197K/L200K) (Nostoc punctiforme) (UniProt B2J6D9). Put plainly: negative stain EM.

No constants are given. Whether binding was seen depends on the method and setting. Some results given as binding are weak or reduced against the parent protein; the word gives no strength.

B1: Vipp1_(F197K/L200K) (protein, UniProt B2J6D9 1-258)
chain: MGLFDRIKRVVSSNLNDLVNKAEDPEKMLEQAILEMQEDLVQLRQGVAQAIAAQKRSEKQYNDAQNEINKWQRNAQLALQKGDENLARQALERKKTYTDTSAALKASLDTQSTQVETLKRNLIQLESKISEAKTKKEMLKARITTAKAQEQLQGMVRGMNTSSAMSAFERMEEKVLMQESRAQALGELAGADLETQKAQKEGGSDVDDELAALKAQMLPPATPVTQAQLPPQQETTPAKSNEVVDAELDSLRKQLDQL
As to B1, the binding entry is listed as “binds weakly”.

Source of the values: article doi:10.1101/2020.08.13.249979 (bioRxiv, 2020).
